Assay results as given in patent US20050049278A1, “Benzo[1,3]dioxole compounds, pharmaceutical compositions thereof, and processes of making and using the same” (priority 2003, published 2005).
Some of these results come from one statement about several compounds together.

Amino acid sequences for entries named in this document (tags omitted). A change or cut given only in a name is not applied to a line headed by its entry.
UniProt P11388: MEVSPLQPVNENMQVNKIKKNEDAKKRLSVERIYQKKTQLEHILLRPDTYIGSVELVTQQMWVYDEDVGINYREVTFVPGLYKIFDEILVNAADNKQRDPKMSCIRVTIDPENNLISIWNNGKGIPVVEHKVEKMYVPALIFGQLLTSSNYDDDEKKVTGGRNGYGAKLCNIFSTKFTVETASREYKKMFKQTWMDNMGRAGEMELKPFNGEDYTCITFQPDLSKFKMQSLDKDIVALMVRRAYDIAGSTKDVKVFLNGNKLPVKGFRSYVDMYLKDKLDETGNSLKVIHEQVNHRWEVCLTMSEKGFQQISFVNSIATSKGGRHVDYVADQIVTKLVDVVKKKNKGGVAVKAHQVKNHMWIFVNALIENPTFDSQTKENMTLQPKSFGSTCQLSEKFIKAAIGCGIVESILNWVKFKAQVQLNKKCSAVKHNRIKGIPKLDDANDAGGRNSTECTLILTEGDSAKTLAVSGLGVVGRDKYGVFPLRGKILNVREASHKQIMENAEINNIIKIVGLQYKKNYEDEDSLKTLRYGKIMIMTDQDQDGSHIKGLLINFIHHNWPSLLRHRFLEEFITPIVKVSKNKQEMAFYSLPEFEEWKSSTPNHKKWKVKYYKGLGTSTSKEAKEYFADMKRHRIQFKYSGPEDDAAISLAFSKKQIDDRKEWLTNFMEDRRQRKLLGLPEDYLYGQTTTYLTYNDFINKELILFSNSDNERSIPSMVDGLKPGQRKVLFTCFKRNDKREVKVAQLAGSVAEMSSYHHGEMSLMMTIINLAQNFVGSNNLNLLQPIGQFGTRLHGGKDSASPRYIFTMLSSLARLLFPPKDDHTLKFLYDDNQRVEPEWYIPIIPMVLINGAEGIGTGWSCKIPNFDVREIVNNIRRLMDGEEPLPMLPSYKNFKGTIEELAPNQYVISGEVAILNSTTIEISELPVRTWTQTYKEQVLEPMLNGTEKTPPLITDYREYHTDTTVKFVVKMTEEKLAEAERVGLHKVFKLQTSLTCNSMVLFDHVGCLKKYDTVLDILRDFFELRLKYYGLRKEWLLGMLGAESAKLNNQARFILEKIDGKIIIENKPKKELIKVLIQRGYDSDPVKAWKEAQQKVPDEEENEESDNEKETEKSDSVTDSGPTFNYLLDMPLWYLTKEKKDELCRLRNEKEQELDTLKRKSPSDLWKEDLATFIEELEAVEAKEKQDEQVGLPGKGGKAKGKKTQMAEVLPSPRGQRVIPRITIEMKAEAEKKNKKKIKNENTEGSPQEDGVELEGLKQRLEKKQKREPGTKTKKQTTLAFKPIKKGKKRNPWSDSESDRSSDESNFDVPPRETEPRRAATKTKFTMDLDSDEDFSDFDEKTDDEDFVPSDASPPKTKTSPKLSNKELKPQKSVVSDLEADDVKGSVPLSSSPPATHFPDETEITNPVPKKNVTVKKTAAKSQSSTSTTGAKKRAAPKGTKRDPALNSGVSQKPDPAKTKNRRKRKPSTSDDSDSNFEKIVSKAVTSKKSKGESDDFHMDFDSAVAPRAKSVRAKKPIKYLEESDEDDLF

Experiments:
topoisomerase I = target: T1, topoisomerase I (Homo sapiens, UniProt P11387); assay: Topoisomerase I assay (supercoiled pBluescript DNA, agarose gel); format: biochemical; settings: in vitro, FIG. 2
T1 construct: purchased Sigma-Aldrich
T1 sequence (P11387 1-765): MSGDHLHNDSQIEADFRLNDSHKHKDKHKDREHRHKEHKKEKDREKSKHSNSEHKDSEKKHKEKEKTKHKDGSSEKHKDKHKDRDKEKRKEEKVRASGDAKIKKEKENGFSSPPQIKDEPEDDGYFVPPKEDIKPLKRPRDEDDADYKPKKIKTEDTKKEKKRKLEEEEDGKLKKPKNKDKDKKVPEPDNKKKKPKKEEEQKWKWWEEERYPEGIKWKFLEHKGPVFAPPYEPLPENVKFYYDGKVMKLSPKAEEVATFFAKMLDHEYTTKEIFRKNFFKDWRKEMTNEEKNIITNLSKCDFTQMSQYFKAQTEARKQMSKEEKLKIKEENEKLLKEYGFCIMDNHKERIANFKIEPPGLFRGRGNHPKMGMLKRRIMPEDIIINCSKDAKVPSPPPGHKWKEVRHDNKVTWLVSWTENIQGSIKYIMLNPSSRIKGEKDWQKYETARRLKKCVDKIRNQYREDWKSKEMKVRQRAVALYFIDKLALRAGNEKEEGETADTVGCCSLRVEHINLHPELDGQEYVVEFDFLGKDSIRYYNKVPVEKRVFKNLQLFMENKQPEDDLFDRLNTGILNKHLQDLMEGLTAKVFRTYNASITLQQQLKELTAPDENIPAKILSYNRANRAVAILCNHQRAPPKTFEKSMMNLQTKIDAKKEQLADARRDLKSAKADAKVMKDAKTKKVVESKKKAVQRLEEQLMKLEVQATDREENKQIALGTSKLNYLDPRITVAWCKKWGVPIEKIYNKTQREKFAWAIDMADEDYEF
Protocol: (§1) The ability of compounds that cause S-phase cell cycle arrest to inhibit topoisomerase I and topoisomerase II was examined. Analysis of topoisomerase activity was performed in 20 μl reactions with either topoisomerase I reaction buffer (10 mM TRIS-HCl, pH 7.5; 100 mM NaCl; 1 mM 2-mercaptoethanol) or topoisomerase II reaction buffer (50 mM Tris-HCl, pH 8; 120 mM KCl; 10 mM MgCl2; 0.5 mM dithiothreitol; 0.5 mM ATP; 30 μg BSA/ml) containing 125 ng supercoiled pBluescript DNA and either 2 U topoisomerase I (Sigma-Aldrich) or topoisomerase II (Topogen Inc.). After reaction at 37° C. for 20 minutes, the reactions were terminated through the addition of sodium dodecyl sulfate to 1% w/v and heating to 65° C. for 10 minutes. Proteinase K was then added to 10 μg/ml and digestion was allowed to proceed at 37° C. for 20 minutes before electrophoresis of the DNA in 0.8% agarose gels containing 0.5 μg/ml ethidium bromide for 18 hours at 75V in 0.5×TBE buffer. DNA was then visualized using a UV-transilluminator and the image was captured using a BioRad CCD camera and gel documentation system.

topoisomerase II = target: T2, topoisomerase II (Homo sapiens, UniProt P11388); assay: Topoisomerase II assay (supercoiled pBluescript DNA, agarose gel); format: biochemical; settings: in vitro, FIG. 2
T2 construct: purchased Topogen Inc
Protocol: as §1, with “Analysis” for “The ability of compounds that cause S-phase cell cycle arrest to inhibit topoisomerase I and topoisomerase II was examined. Analysis”

| Compound | concentrations at which topoisomerase I activity was inhibited (topoisomerase I) | concentrations at which topoisomerase II activity was inhibited (topoisomerase II) |
| --- | --- | --- |
| COc1cc(COc2c(OC)ccc3c2C(=O)O[C@@H]3[C@H]2c3c(cc4c(c3OC)OCO4)CCN2C)cc(OC)c1OC [Compound 5a] | greater than 100 μM | greater than 100 μM |
| COc1cc(CN2CCc3cc4c(c(OC)c3[C@@H]2[C@H]2OC(=O)c3c2ccc(OC)c3OC)OCO4)cc(OC)c1OC [Compound 14] | greater than 33 μM | greater than 33 μM |
| COc1ccc2c(c1OCc1ccsc1)C(=O)O[C@@H]2[C@H]1c2c(cc3c(c2OC)OCO3)CCN1C [Compound 15] | greater than 33 μM | greater than 100 μM |
| COc1ccc2c(c1OCc1csc(C)n1)C(=O)O[C@@H]2[C@H]1c2c(cc3c(c2OC)OCO3)CCN1C [Compound 16] | greater than 100 μM | greater than 100 μM |
